# According to publication PMC5775349:
# Amino acid sequences for entries named in this document (tags omitted).
# UniProt P40160: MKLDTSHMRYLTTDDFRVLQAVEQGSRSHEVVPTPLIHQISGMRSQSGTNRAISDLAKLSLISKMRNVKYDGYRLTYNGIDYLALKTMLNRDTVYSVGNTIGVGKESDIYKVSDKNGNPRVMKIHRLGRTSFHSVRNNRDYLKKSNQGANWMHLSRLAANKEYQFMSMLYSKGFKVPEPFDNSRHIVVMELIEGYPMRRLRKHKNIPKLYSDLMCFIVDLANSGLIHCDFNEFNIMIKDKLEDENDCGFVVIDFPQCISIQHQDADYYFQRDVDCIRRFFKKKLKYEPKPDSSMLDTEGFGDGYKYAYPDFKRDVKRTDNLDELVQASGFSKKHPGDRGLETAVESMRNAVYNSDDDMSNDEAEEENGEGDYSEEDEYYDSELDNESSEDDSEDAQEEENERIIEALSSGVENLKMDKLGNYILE
# No constants are given. Whether binding was seen depends on the method and setting. Binding seen in cells or lysates may run through a third protein. Some results given as binding are weak or reduced against the parent protein; the word gives no strength. Where a sequence is shown, tags or fusion partners need not be part of it.
# T1: Ypk1, endogenous (S. cerevisiae (endogenous in yeast cells)) (UniProt P12688)
# T1 sequence: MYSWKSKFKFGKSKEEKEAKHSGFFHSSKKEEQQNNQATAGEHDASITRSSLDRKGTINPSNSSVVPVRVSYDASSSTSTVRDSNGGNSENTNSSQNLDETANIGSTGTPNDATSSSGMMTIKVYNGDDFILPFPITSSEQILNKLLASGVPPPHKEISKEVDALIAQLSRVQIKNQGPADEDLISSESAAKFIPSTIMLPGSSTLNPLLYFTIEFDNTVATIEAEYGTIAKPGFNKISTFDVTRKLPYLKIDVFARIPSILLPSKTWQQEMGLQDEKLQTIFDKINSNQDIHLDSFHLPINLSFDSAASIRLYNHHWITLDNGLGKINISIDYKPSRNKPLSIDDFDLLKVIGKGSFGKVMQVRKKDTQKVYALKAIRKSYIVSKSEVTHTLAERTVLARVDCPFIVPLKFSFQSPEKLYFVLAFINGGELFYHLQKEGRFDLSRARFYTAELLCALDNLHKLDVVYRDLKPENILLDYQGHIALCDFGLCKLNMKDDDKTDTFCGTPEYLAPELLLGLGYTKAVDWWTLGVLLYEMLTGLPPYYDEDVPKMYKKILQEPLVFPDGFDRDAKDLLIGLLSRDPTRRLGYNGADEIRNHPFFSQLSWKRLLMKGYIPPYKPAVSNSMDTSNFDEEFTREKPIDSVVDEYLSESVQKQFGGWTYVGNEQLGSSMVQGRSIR
# T2: HA-tagged ribosomal protein uS7 (Rps5), wild type (S. cerevisiae) (UniProt P26783)
# T2 sequence: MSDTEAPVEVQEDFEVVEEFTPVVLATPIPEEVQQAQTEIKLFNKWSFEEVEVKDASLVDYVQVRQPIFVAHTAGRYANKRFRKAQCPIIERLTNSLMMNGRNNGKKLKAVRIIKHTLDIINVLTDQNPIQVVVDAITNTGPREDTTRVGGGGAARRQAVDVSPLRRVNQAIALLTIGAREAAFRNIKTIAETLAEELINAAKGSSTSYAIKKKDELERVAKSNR
# Experiments:
# [1] = biological target: T1, Ypk1, endogenous (S. cerevisiae (endogenous in yeast cells)); assay: co-IP; yeast lysate pre-cleared with Protein G Sepharose; 2xHA-uS7 or Ypk1 immunoprecipitated with anti-HA or anti-Ypk1 antibody and protein G-Sepharose; Western blotting
# [2] = biological target: TAP-tagged Rio2 (S. cerevisiae) (UniProt P40160); assay: co-IP; lysate of a TAP-Rio2 strain expressing HA-tagged WT or S223A uS7; TAP-Rio2 precipitated with IgG-Sepharose; uS7 detected by anti-HA, TAP-Rio2 by anti-CBP
# [3] = biological target: T2, HA-tagged ribosomal protein uS7 (Rps5), wild type (S. cerevisiae); assay: co-IP; yeast lysate pre-cleared with Protein G Sepharose; 2xHA-uS7 or Ypk1 immunoprecipitated with anti-HA or anti-Ypk1 antibody and protein G-Sepharose; Western blotting
binding [1],binding [2],binding [3],Binder
binds weakly,binds,–,"HA-tagged ribosomal protein uS7 (Rps5), wild type (protein, UniProt P26783 1-225) MSDTEAPVEVQEDFEVVEEFTPVVLATPIPEEVQQAQTEIKLFNKWSFEEVEVKDASLVDYVQVRQPIFVAHTAGRYANKRFRKAQCPIIERLTNSLMMNGRNNGKKLKAVRIIKHTLDIINVLTDQNPIQVVVDAITNTGPREDTTRVGGGGAARRQAVDVSPLRRVNQAIALLTIGAREAAFRNIKTIAETLAEELINAAKGSSTSYAIKKKDELERVAKSNR"
–,binds,–,"HA-tagged ribosomal protein uS7 (Rps5) S223A (protein, UniProt P26783 1-225) MSDTEAPVEVQEDFEVVEEFTPVVLATPIPEEVQQAQTEIKLFNKWSFEEVEVKDASLVDYVQVRQPIFVAHTAGRYANKRFRKAQCPIIERLTNSLMMNGRNNGKKLKAVRIIKHTLDIINVLTDQNPIQVVVDAITNTGPREDTTRVGGGGAARRQAVDVSPLRRVNQAIALLTIGAREAAFRNIKTIAETLAEELINAAKGSSTSYAIKKKDELERVAKANR"
–,–,binds,"Ypk1, endogenous (enzyme, UniProt P12688 1-680) MYSWKSKFKFGKSKEEKEAKHSGFFHSSKKEEQQNNQATAGEHDASITRSSLDRKGTINPSNSSVVPVRVSYDASSSTSTVRDSNGGNSENTNSSQNLDETANIGSTGTPNDATSSSGMMTIKVYNGDDFILPFPITSSEQILNKLLASGVPPPHKEISKEVDALIAQLSRVQIKNQGPADEDLISSESAAKFIPSTIMLPGSSTLNPLLYFTIEFDNTVATIEAEYGTIAKPGFNKISTFDVTRKLPYLKIDVFARIPSILLPSKTWQQEMGLQDEKLQTIFDKINSNQDIHLDSFHLPINLSFDSAASIRLYNHHWITLDNGLGKINISIDYKPSRNKPLSIDDFDLLKVIGKGSFGKVMQVRKKDTQKVYALKAIRKSYIVSKSEVTHTLAERTVLARVDCPFIVPLKFSFQSPEKLYFVLAFINGGELFYHLQKEGRFDLSRARFYTAELLCALDNLHKLDVVYRDLKPENILLDYQGHIALCDFGLCKLNMKDDDKTDTFCGTPEYLAPELLLGLGYTKAVDWWTLGVLLYEMLTGLPPYYDEDVPKMYKKILQEPLVFPDGFDRDAKDLLIGLLSRDPTRRLGYNGADEIRNHPFFSQLSWKRLLMKGYIPPYKPAVSNSMDTSNFDEEFTREKPIDSVVDEYLSESVQKQFGGWTYVGNEQLGSSMVQGRSIR"
